# Data source: PubChem BioAssay AID1259254 (NCATS, 2017)
# Screen: 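Gene knock-downs that lead to re-replication, shown by excess G2 DNA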 (primary screen)
# System: human HCT116 colorectal cancer cells
# Knock-down reagent: single siRNA against human genes
# Duration: 3 days
# Read-out: 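Nuclei stained with Hoechst and imaged; cell-cycle phase assigned by DNA content; G2 share scaled per plate, non-targeting siRNA 0%, GMNN siRNA 100%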
# Direction: G2 robust z-score: higher = more G2 cells, more excess DNA replication
# Call rule: 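An siRNA counts as active if its G2 robust z-score lies at least 5 MADs above the screen median; here such calls match roughly 38% of GMNN control or more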
# Shown is one part, drawn at random, of about 59,000 reagents. Over the whole deposit, about 1,550 (2.6%) are marked active. 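G2 share is only a proxy for re-replication; each gene was hit by three separate siRNAs, and active genes were retested.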 Reagents against one gene are numbered here. Further read-outs or replicates are left out here. Not stated in the record: the amount of reagent.
G2 robust z-score,Call,target gene,siRNA no.
-0.257,inactive,GTF2H2C_2,1
1.01,inactive,GTF2H2C_2,2
-0.798,inactive,GTF2H2C_2,3
4.17,inactive,PRC1,1
7.35,active,PRC1,2
11.9,active,PRC1,3
-0.66,inactive,DHRS4,1
-0.0456,inactive,DHRS4,2
0.433,inactive,DHRS4,3
7.56,active,ZC3H14,1
0.721,inactive,ZC3H14,2
-0.392,inactive,ZC3H14,3
-0.932,inactive,CAST,1
0.118,inactive,CAST,2
-0.35,inactive,CAST,3
-0.187,inactive,NEURL3,1
-0.669,inactive,NEURL3,2
0.85,inactive,NEURL3,3
0.348,inactive,YIF1A,1
0.952,inactive,YIF1A,2
0.782,inactive,YIF1A,3
0.538,inactive,IFI6,1
2.02,inactive,IFI6,2
0.253,inactive,IFI6,3
1.59,inactive,NXT1,1
-0.466,inactive,NXT1,2
1.48,inactive,NXT1,3
-1.23,inactive,SRF,1
0.259,inactive,SRF,2
1.58,inactive,SRF,3
4.67,inactive,TMBIM4,1
1.7,inactive,TMBIM4,2
1.94,inactive,TMBIM4,3
-0.992,inactive,ARMC10P1,1
0.106,inactive,ARMC10P1,2
-0.803,inactive,ARMC10P1,3
0.315,inactive,GLTPD2,1
-0.309,inactive,GLTPD2,2
-0.173,inactive,GLTPD2,3
-0.678,inactive,DTX4,1
-0.836,inactive,DTX4,2
2.69,inactive,DTX4,3
0.215,inactive,FAM230A,1
0.159,inactive,FAM230A,2
-0.235,inactive,FAM230A,3
0.774,inactive,ST3GAL6,1
-0.804,inactive,ST3GAL6,2
0.116,inactive,ST3GAL6,3
-0.96,inactive,SLC19A2,1
0.281,inactive,SLC19A2,2
4.29,inactive,SLC19A2,3
2.41,inactive,KRT5,1
1.99,inactive,KRT5,2
0.937,inactive,KRT5,3
0.0334,inactive,ANKRD26P1,1
-1.1,inactive,ANKRD26P1,2
1.23,inactive,ANKRD26P1,3
-0.193,inactive,COTL1,1
0.462,inactive,COTL1,2
0.79,inactive,COTL1,3
0.777,inactive,LDAH,1
0.596,inactive,LDAH,2
-0.445,inactive,LDAH,3
0.749,inactive,VEZF1,1
-0.852,inactive,VEZF1,2
0.198,inactive,VEZF1,3
-0.34,inactive,DUSP9,1
-0.85,inactive,DUSP9,2
0.116,inactive,DUSP9,3
-0.0215,inactive,AKR1E2,1
-0.0948,inactive,AKR1E2,2
1.12,inactive,AKR1E2,3
2.55,inactive,EIF3E,1
2.84,inactive,EIF3E,2
4.62,inactive,EIF3E,3
3.23,inactive,SDHB,1
-0.0994,inactive,SDHB,2
1.78,inactive,SDHB,3
0.718,inactive,MAP1LC3B2,1
-0.479,inactive,MAP1LC3B2,2
-0.278,inactive,MAP1LC3B2,3
-0.0663,inactive,ITGBL1,1
-0.206,inactive,ITGBL1,2
-1.01,inactive,ITGBL1,3
-1.14,inactive,HYAL4,1
0.114,inactive,HYAL4,2
-0.655,inactive,HYAL4,3

6 consecutive reagents from above:
G2 robust z-score,Call,target gene,siRNA no.
-0.0994,inactive,SDHB,2
1.78,inactive,SDHB,3
0.718,inactive,MAP1LC3B2,1
-0.479,inactive,MAP1LC3B2,2
-0.278,inactive,MAP1LC3B2,3
-0.0663,inactive,ITGBL1,1
